{"source": "PubChem BioAssay AID602196 | INSERM – 2012", "test": "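Knock-downs that protect lung cancer cells from cisplatin or sensitise them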", "cell system": "human A549 lung cancer cells", "reagent": "siRNA pair against human genes", "time to read-out": "48 h transfection before cisplatin; time from cisplatin to read-out not stated", "conditions": "cisplatin at a dose killing half of control-siRNA cells; exact dose and duration not given", "detection": "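Shift in cisplatin death relative to control siRNA, from -50 (all cells die) to +50 (no cells die); siRNAs harmful on their own scored 0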", "scale": "two-siRNA summed score (-2 to +2): higher = both siRNAs protect from cisplatin killing; -2 means both sensitise; mean protection from cisplatin (shift in death): higher = protection from cisplatin killing", "active means": "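Each siRNA scores 0 if harmful alone by LDH or WST-1, otherwise +1 if it reduces and -1 if it increases cisplatin killing; a gene is active when both siRNAs agree (sum +2 or -2)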", "calls": "active = both siRNAs shift cisplatin killing the same way; inactive = no consistent shift, or siRNA harmful alone", "note": "Here is one part, drawn at random, of about 23,000 reagents tested. 455 of them (2%) were called active. 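Active includes both protection and sensitisation; some change values fall well beyond the stated -50 to +50 range.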 Further read-outs or replicates are left out here. Not given: the amount of reagent."}
{"gene":"CLSTN2 (calsyntenin 2)","two-siRNA summed score (-2 to +2)":0,"mean protection from cisplatin (shift in death) (%)":-4.2,"Call":"inactive"}
{"gene":"BTBD2 (BTB domain containing 2)","two-siRNA summed score (-2 to +2)":0,"mean protection from cisplatin (shift in death) (%)":-2.8,"Call":"inactive"}
{"gene":"EGFL6 (EGF like domain multiple 6)","two-siRNA summed score (-2 to +2)":0,"mean protection from cisplatin (shift in death) (%)":-8.5,"Call":"inactive"}
{"gene":"CTNNA2 (catenin alpha 2)","two-siRNA summed score (-2 to +2)":0,"mean protection from cisplatin (shift in death) (%)":-1.6,"Call":"inactive"}
{"gene":"FLJ35785","two-siRNA summed score (-2 to +2)":0,"mean protection from cisplatin (shift in death) (%)":9.6,"Call":"inactive"}
{"gene":"RPL23 (ribosomal protein L23)","two-siRNA summed score (-2 to +2)":0,"mean protection from cisplatin (shift in death) (%)":26.8,"Call":"inactive"}
{"gene":"GHITM (growth hormone inducible transmembrane protein)","two-siRNA summed score (-2 to +2)":-1,"mean protection from cisplatin (shift in death) (%)":-7.5,"Call":"inactive"}
{"gene":"MELTF (melanotransferrin)","two-siRNA summed score (-2 to +2)":-1,"mean protection from cisplatin (shift in death) (%)":-10.8,"Call":"inactive"}
{"gene":"COG2 (component of oligomeric golgi complex 2)","two-siRNA summed score (-2 to +2)":-1,"mean protection from cisplatin (shift in death) (%)":-15.8,"Call":"inactive"}
{"gene":"ZXDA (zinc finger X-linked duplicated A)","two-siRNA summed score (-2 to +2)":0,"mean protection from cisplatin (shift in death) (%)":5.4,"Call":"inactive"}
{"gene":"LOC441033","two-siRNA summed score (-2 to +2)":0,"mean protection from cisplatin (shift in death) (%)":20.5,"Call":"inactive"}
{"gene":"STARD6 (StAR related lipid transfer domain containing 6)","two-siRNA summed score (-2 to +2)":0,"mean protection from cisplatin (shift in death) (%)":9,"Call":"inactive"}
{"gene":"ERAL1 (Era like 12S mitochondrial rRNA chaperone 1)","two-siRNA summed score (-2 to +2)":0,"mean protection from cisplatin (shift in death) (%)":-0.8,"Call":"inactive"}
{"gene":"NTAN1 (N-terminal asparagine amidase)","two-siRNA summed score (-2 to +2)":0,"mean protection from cisplatin (shift in death) (%)":6,"Call":"inactive"}
{"gene":"PMCHL2 (pro-melanin concentrating hormone like 2 (pseudogene))","two-siRNA summed score (-2 to +2)":0,"mean protection from cisplatin (shift in death) (%)":2.7,"Call":"inactive"}
{"gene":"PRKAG3 (protein kinase AMP-activated non-catalytic subunit gamma 3)","two-siRNA summed score (-2 to +2)":1,"mean protection from cisplatin (shift in death) (%)":9.4,"Call":"inactive"}
{"gene":"ZNF592 (zinc finger protein 592)","two-siRNA summed score (-2 to +2)":0,"mean protection from cisplatin (shift in death) (%)":7.7,"Call":"inactive"}
{"gene":"LOC391337","two-siRNA summed score (-2 to +2)":0,"mean protection from cisplatin (shift in death) (%)":1.7,"Call":"inactive"}
{"gene":"UBR2 (ubiquitin protein ligase E3 component n-recognin 2)","two-siRNA summed score (-2 to +2)":0,"mean protection from cisplatin (shift in death) (%)":-17.2,"Call":"inactive"}
{"gene":"RIPK1 (receptor interacting serine/threonine kinase 1)","two-siRNA summed score (-2 to +2)":0,"mean protection from cisplatin (shift in death) (%)":3.7,"Call":"inactive"}
{"gene":"LOC151451","two-siRNA summed score (-2 to +2)":0,"mean protection from cisplatin (shift in death) (%)":14.8,"Call":"inactive"}
{"gene":"PCLO (piccolo presynaptic cytomatrix protein)","two-siRNA summed score (-2 to +2)":0,"mean protection from cisplatin (shift in death) (%)":9.3,"Call":"inactive"}
{"gene":"PDE6H (phosphodiesterase 6H)","two-siRNA summed score (-2 to +2)":0,"mean protection from cisplatin (shift in death) (%)":5.8,"Call":"inactive"}

3 of these entries, set out differently:
ZXDA (zinc finger X-linked duplicated A) | two-siRNA summed score (-2 to +2): 0; mean protection from cisplatin (shift in death) (%): 5.4; Call: inactive
LOC441033 | two-siRNA summed score (-2 to +2): 0; mean protection from cisplatin (shift in death) (%): 20.5; Call: inactive
STARD6 (StAR related lipid transfer domain containing 6) | two-siRNA summed score (-2 to +2): 0; mean protection from cisplatin (shift in death) (%): 9; Call: inactive

Continued.
{"gene":"LY9 (lymphocyte antigen 9)","two-siRNA summed score (-2 to +2)":1,"mean protection from cisplatin (shift in death) (%)":8.2,"Call":"inactive"}
{"gene":"LOC343301","two-siRNA summed score (-2 to +2)":0,"mean protection from cisplatin (shift in death) (%)":4.6,"Call":"inactive"}
{"gene":"EP400P1 (EP400 pseudogene 1)","two-siRNA summed score (-2 to +2)":1,"mean protection from cisplatin (shift in death) (%)":10.6,"Call":"inactive"}
{"gene":"ALYREF (Aly/REF export factor)","two-siRNA summed score (-2 to +2)":0,"mean protection from cisplatin (shift in death) (%)":1,"Call":"inactive"}
{"gene":"PPP1R9B (protein phosphatase 1 regulatory subunit 9B)","two-siRNA summed score (-2 to +2)":0,"mean protection from cisplatin (shift in death) (%)":6.8,"Call":"inactive"}
{"gene":"ZKSCAN8 (zinc finger with KRAB and SCAN domains 8)","two-siRNA summed score (-2 to +2)":1,"mean protection from cisplatin (shift in death) (%)":16.7,"Call":"inactive"}
{"gene":"FLJ10707","two-siRNA summed score (-2 to +2)":-1,"mean protection from cisplatin (shift in death) (%)":-7.2,"Call":"inactive"}
{"gene":"WAS (WASP actin nucleation promoting factor)","two-siRNA summed score (-2 to +2)":0,"mean protection from cisplatin (shift in death) (%)":6,"Call":"inactive"}
{"gene":"DGKQ (diacylglycerol kinase theta)","two-siRNA summed score (-2 to +2)":2,"mean protection from cisplatin (shift in death) (%)":23.9,"Call":"active"}
{"gene":"LYL1 (LYL1 basic helix-loop-helix family member)","two-siRNA summed score (-2 to +2)":-1,"mean protection from cisplatin (shift in death) (%)":-16.9,"Call":"inactive"}
{"gene":"NAV2-AS5 (NAV2 antisense RNA 5)","two-siRNA summed score (-2 to +2)":1,"mean protection from cisplatin (shift in death) (%)":11.6,"Call":"inactive"}
{"gene":"TSN (translin)","two-siRNA summed score (-2 to +2)":0,"mean protection from cisplatin (shift in death) (%)":5,"Call":"inactive"}
{"gene":"ZNF398 (zinc finger protein 398)","two-siRNA summed score (-2 to +2)":0,"mean protection from cisplatin (shift in death) (%)":13.5,"Call":"inactive"}
{"gene":"CA11 (carbonic anhydrase 11 (inactive))","two-siRNA summed score (-2 to +2)":0,"mean protection from cisplatin (shift in death) (%)":-2.3,"Call":"inactive"}
{"gene":"HMGCS1P1 (HMGCS1 pseudogene 1)","two-siRNA summed score (-2 to +2)":0,"mean protection from cisplatin (shift in death) (%)":8.8,"Call":"inactive"}
{"gene":"PTGDR2 (prostaglandin D2 receptor 2)","two-siRNA summed score (-2 to +2)":1,"mean protection from cisplatin (shift in death) (%)":18.3,"Call":"inactive"}
{"gene":"IL26 (interleukin 26)","two-siRNA summed score (-2 to +2)":0,"mean protection from cisplatin (shift in death) (%)":-3.4,"Call":"inactive"}
